Consider seven molecules from PMC11758221 (ACS Central Science, 2024).

The nature of data set [1]: Circular dichroism spectroscopy, secondary structure and helicity. In kind it is physicochemical. Particulars: 50 μM peptide in 30% trifluoroethanol in aqueous buffer (100 mM NaF, 10 mM KH2PO4 pH 7.5), 25 °C; for calculated helicity (α-helix percentage, Hα): CD, averaged from 3 scans, Luo-Baldwin formula.
Data set [2] in a line: general procedure: Fmoc solid-phase peptide synthesis; Rink Amide ProTide resin; HBTU/HOBt, DIPEA. Particulars: whole synthesis, scale 0.1 mmol.
Data set [3] can be described thus: general procedure: Fmoc solid-phase peptide synthesis; Rink Amide ProTide resin (0.6 mmol/g); 2-chlorotrityl-hydrazino resin (0.76 mmol/g) for cyclic peptide precursor; HBTU/HOBt, DIPEA.

For some of these results: Plain letter strings leave the end groups untold. For some of these results: Strings that start with PEPTIDE1 are HELM notation: dots part the residues, brackets hold end groups and non-standard residues. Where no end group is shown, it is not given here.

For the molecule `N=C(N)NCCC[C@H](NC(=O)CNC(=O)[C@@H](N)Cc1ccc(O)cc1)C(=O)N[C@@H](CCCCN)C(=O)N[C@@H](CCCCN)C(=O)N[C@@H](CCCNC(=N)N)C(=O)N[C@@H](CCCNC(=N)N)C(=O)N[C@@H](CCC(N)=O)C(=O)N[C@@H](CCCNC(=N)N)C(=O)N[C@@H](CCCNC(=N)N)C(=O)N[C@@H](CCCNC(=N)N)C(=O)N1CCC[C@H]1C(=O)N[C@@H](CCC(N)=O)C(N)=O` [TAT, reference compound], in data set [1], the “secondary structure by CD spectrum” value is recorded as “unstructured in solution”.
For `CC[C@H](C)[C@H](NC(=O)[C@H](CCCCN)NC(=O)[C@@H](NC(=O)[C@H](CCC(N)=O)NC(=O)[C@@H](N)CCCNC(=N)N)[C@@H](C)CC)C(=O)N[C@@H](Cc1c[nH]c2ccccc12)C(=O)N[C@@H](Cc1ccccc1)C(=O)N[C@@H](CCC(N)=O)C(=O)N[C@@H](CC(N)=O)C(=O)N[C@@H](CCCNC(=N)N)C(=O)N[C@@H](CCCNC(=N)N)C(=O)N[C@@H](CCSC)C(=O)N[C@@H](CCCCN)C(=O)N[C@@H](Cc1c[nH]c2ccccc12)C(=O)N[C@@H](CCCCN)C(=O)N[C@@H](CCCCN)C(N)=O` [penetratin, reference compound], the “calculated helicity (α-helix percentage, Hα)” value in data set [1] is 61%.
Still for that read-out and setting: as for “GLRKRLRKFRNKIKEK-NH2 [sC18, reference compound]”, the figure is 70%.
In data set [2], KLYACSRYL registered an isolated mass of 50 mg and an isolated yield of 45%.
The corresponding values for “PEPTIDE1{G.L.R.K.R.L.R.K.F.R.N.K.I.K.E.K.[am]}$$$$V2.0” are 104 mg and 48%.
Consider “PEPTIDE1{R.Q.I.K.I.W.F.Q.N.R.R.M.K.W.K.K.[CysSNBD].[am]}$$$$V2.0”, for which the conjugation yield in data set [3] (conjugation step) stood at 35%.
In the case of “PEPTIDE1{Y.G.R.K.K.R.R.Q.R.R.R.P.Q.[am]}$$$$V2.0”, the isolated mass in data set [3] (whole synthesis) was 71 mg. The molecule also gave an isolated yield in data set [3] (whole synthesis, scale of the general procedure 0.1 mmol) of 40%.
